Some entries share one result that the patent states for a list of compounds.
System: mouse acetic acid writhing model
Assay: mouse acetic acid writhing model (nociceptive pain)
Format: in vivo
Details: male ddY mice; oral administration 45 min before 0.6% acetic acid i.p.; dose suppressing 50% of writhing responses vs vehicle group; vehicle A or B

Structure (SMILES)	ED50
COc1ccc(-n2nc(C3(O)CCC(O)CC3)cc2-c2cccc(C)c2)cc1 (stereo not drawn) [compound 9]	> 10 mg/kg
OC1CCC(O)(c2cc(-c3ccc(Cl)cc3)n(-c3ccc(F)cc3)n2)CC1 (stereo not drawn) [compound 6]	> 10 mg/kg
COc1ccc(-n2nc(C3(O)CCC(O)CC3)cc2-c2ccc(F)cc2)cc1 (stereo not drawn) [compound 14]	> 10 mg/kg
COc1ccc(-n2nc(C3(OC(C)=O)CCC(O)CC3)cc2-c2ccc(C)cc2)cc1 (stereo not drawn) [Comparative Example 26, c-4-Hydroxy-1-(1-(4-methoxyphenyl)-5-(p-tolyl)-1H-pyrazol-3-yl)-cyclohexan-r-1-yl acetate]	>10 mg/kg
COc1ccc(-n2nc(C3(OC)CCC(O)CC3)cc2-c2ccc(C)cc2)cc1 (stereo not drawn) [Comparative Example 27, 4-Methoxy-4-(1-(4-methoxyphenyl)-5-p-tolyl-1H-pyrazol-3-yl)cyclohexanol]	>10 mg/kg
COc1ccc(-n2nc(C3(O)CCC(O)CC3)cc2-c2ccc(S(C)(=O)=O)cc2)cc1 (stereo not drawn) [compound 4]	> 10 mg/kg
COc1ccc(-n2nc(C3(O)CCC(O)CC3)cc2-c2cccnc2OC)cc1 (stereo not drawn) [compound 24]	>10 mg/kg
OC1CCC(O)(c2cc(-c3ccc(Cl)cc3)n(-c3ccc(Cl)cc3Cl)n2)CC1 (stereo not drawn) [compound 8]	> 10 mg/kg
Cc1ccc(-c2cc(C3(O)CCC(O)CC3)nn2-c2ccc(F)cc2)cc1 (stereo not drawn) [compound 12]	> 10 mg/kg
COc1ccc(-n2nc(C3(O)CCC(O)CC3)cc2-c2cccnc2OC)cc1 (stereo not drawn) [compound 25]	> 10 mg/kg
Cc1ccc(-c2cc(C3(O)CCC(O)CC3)nn2-c2ccc(F)cc2)cc1 (stereo not drawn) [compound 11]	>10 mg/kg
COc1ccc(-n2nc(C3(O)CCC(O)CC3)cc2-c2ccc(S(C)(=O)=O)cc2)cc1 (stereo not drawn) [Comparative Example 3]	>10 mg/kg
OC1CCC(O)(c2cc(-c3ccc(F)cc3)n(-c3ccc(Cl)cc3)n2)CC1 (stereo not drawn) [compound 16]	> 10 mg/kg
COc1ccc(-n2nc(C3(O)CCC(O)CC3)cc2-c2ccccc2C)cc1 (stereo not drawn) [Comparative Example 2]	> 10 mg/kg
COc1ccc(-n2nc(C3(O)CCC(O)CC3)cc2-c2cccc(C)c2)cc1 (stereo not drawn) [compound 10]	>10 mg/kg
COc1ccc(-n2nc(C3(O)CCC(O)CC3)c(F)c2-c2ccc(C)cc2)cc1 (stereo not drawn) [Comparative Example 28, 1-(4-Fluoro-1-(4-methoxyphenyl)-5-(p-tolyl)-1H-pyrazol-3-yl)cyclohexan-cis-1,4-diol]	>10 mg/kg
Cc1ccc(-c2cc(C3(O)CCC(O)CC3)nn2-c2ccc(S(C)(=O)=O)cc2)cc1 (stereo not drawn) [compound 23]	>10 mg/kg
OC1CCC(O)(c2cc(-c3ccc(Cl)cc3)n(-c3ccc(Cl)cc3Cl)n2)CC1 (stereo not drawn) [compound 7]	>10 mg/kg
OC1CCC(O)(c2cc(-c3ccc(Cl)cc3)n(-c3ccc(F)cc3)n2)CC1 (stereo not drawn) [compound 5]	>10 mg/kg
OC1CCC(O)(c2cc(-c3ccc(F)cc3)n(-c3ccc(F)cc3)n2)CC1 (stereo not drawn) [compound 18]	> 10 mg/kg
OC1CCC(O)(c2cc(-c3ccc(F)cc3)n(-c3ccccc3)n2)CC1 (stereo not drawn) [compound 20]	> 10 mg/kg
COc1ccc(-n2nc(C3(O)CCC(O)CC3)cc2-c2ccc(F)cc2)cc1 (stereo not drawn) [compound 13]	>10 mg/kg
OC1CCC(O)(c2cc(-c3ccc(F)cc3)n(-c3ccc(Cl)cc3)n2)CC1 (stereo not drawn) [compound 15]	>10 mg/kg
OC1CCC(O)(c2cc(-c3ccc(F)cc3)n(-c3ccc(F)cc3)n2)CC1 (stereo not drawn) [compound 17]	>10 mg/kg
COc1ccc(-n2nc(C3(O)CCC(O)CC3)cc2-c2ccccc2C)cc1 (stereo not drawn) [compound 1]	>10 mg/kg
OC1CCC(O)(c2cc(-c3ccc(F)cc3)n(-c3ccccc3)n2)CC1 (stereo not drawn) [compound 19]	>10 mg/kg
Cc1ccc(-n2nc(C3(O)CCC(O)CC3)cc2-c2ccc(F)cc2)cc1 (stereo not drawn) [compound 21]	>10 mg/kg

— US8247569B2, “Cyclohexane derivative and pharmaceutical use thereof” (Toray Industries, Inc., priority 2008, dated 2012)
